# This is one part of the list. These are further read-outs of the screen, such as a control signal, another cell line or another target. No call is given for them. Most of these compounds were active or inconclusive in the main read-out, so they are no random draw. The note in brackets gives the kind of curve behind each potency; many fits are weak.
# Assay: qHTS Assay to Find Inhibitors of Chronic Active B-Cell Receptor Signaling
# Settings: ABC-DLBCL IkBa-CBG/CBR reporter, luminescence ratio (green luciferase fused to IkBa over red control in TMD8 lymphoma cells), 4 h
# In short: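 Concentration-response series (up to 46 uM) were applied to TMD8 dual-reporter cells for 4 h at 37C with doxycycline. Green/red ratio, after filter-overlap correction, defined %Activity; red signal alone was normalised to basal cells and zero luminescence.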
# [1] = measured here: CBR red luminescence, cell number
# [2] = measured here: IkBa-CBG green luminescence
SMILES,AC50 [1],AC50 [2]
Clc1ccc(OCc2nc(-c3ccncc3)no2)c(Br)c1,"4.61 µM [rising, full curve]",–
COc1nc(-c2ccccc2)cc(-c2ccc(OC)c(OC)c2)n1,"5.8 µM [falling, full curve, poor fit]",–
COCCOc1ccc(C(F)(F)F)cc1NC(=O)c1ccc(C)cc1,"18.4 µM [rising, partial curve, poor fit]",–
CCOc1ccc(-n2c(C)nc(O)c2N=Nc2ccccc2)cc1,"2.51 µM [rising, partial curve, poor fit]",–
CCCc1ccc2oc(C(=O)N(Cc3ccncc3)CC3CCCO3)c(C)c2c1 (centres undefined),"11.2 µM [falling, single point]",–
CCCC(CCC)=NNC(=O)c1ccccc1F,"7.94 µM [falling, partial curve]",–
O=C(Nc1ccncc1)c1ccc(Cl)c(S(=O)(=O)N2CCc3ccccc32)c1,"6.51 µM [falling, partial curve]",–
Cc1cccn2c(=O)c(/C=C(\C#N)C(=O)NCc3ccco3)c(N3CCOCC3)nc12,"0.1 µM [falling, full curve, poor fit]",–
COc1ccc(C2=NOC3(CC(=O)N(c4ccc(F)cc4)C3=O)C2)cc1 (centres undefined),"35.5 µM [falling, single point]",–
C#CCOCCOCCOCCNc1nc(N2CCN(C(=O)[C@H]([C@@H](C)CC)n3cc([C@@H](N)Cc4ccc(O)cc4)nn3)CC2)nc(N2CCN(C(=O)[C@H](CCCCN)n3cc([C@@H](N)CO)nn3)CC2)n1,"0.562 µM [rising, full curve, poor fit]",–
COc1ccc(-c2csc(NC(=O)Cc3cc(OC)c(OC)c(OC)c3)n2)cc1OC,"35.5 µM [falling, single point]",–
CN(C)/C=C/C(=O)c1cnc(-c2ccccc2)s1,"35.5 µM [falling, single point]",–
CC(C)c1[nH]nc2c1C(C1C=CCCC1)C(C#N)=C(N)O2 (centres undefined),"0.282 µM [falling, full curve, poor fit]",–
CCCn1c(N)c(C(=O)COC(=O)c2cccc(S(=O)(=O)N3CCOCC3)c2)c(=O)[nH]c1=O,"20.6 µM [rising, single point]",–
O=C(CNC(=O)c1ccco1)N=Nc1c(O)[nH]c2ccc([N+](=O)[O-])cc12,"0.562 µM [falling, full curve, poor fit]",–
CN(/N=C/c1cc(Cl)ccc1O)C1=NS(=O)(=O)c2ccccc21,"11.2 µM [rising, partial curve, poor fit]",–
COC(=O)[C@H]1CN(C(=O)c2ccccc2)C(=O)N1,"0.708 µM [rising, full curve, poor fit]",–
CCCCNc1ncnc2c1cnn2Cc1ccc(Cl)cc1,"3.16 µM [rising, full curve, poor fit]",–
COc1ccc(NC(=O)/C=C/c2ccc(F)cc2)cn1,"29.1 µM [falling, single point]",–
Cn1c(-c2csc(-c3ccccc3)n2)n[nH]c1=S,–,"17.8 µM [falling, single point]"
O=S(=O)(c1ccc(NC(=S)N/N=C/c2c3ccccc3cc3ccccc23)cc1)N1CCOCC1,"10 µM [rising, partial curve, poor fit]",–

# Shown tab-delimited: entries from further up.
SMILES	AC50 [1]	AC50 [2]
CCCCNc1ncnc2c1cnn2Cc1ccc(Cl)cc1	3.16 µM [rising, full curve, poor fit]	–
COc1ccc(NC(=O)/C=C/c2ccc(F)cc2)cn1	29.1 µM [falling, single point]	–
Cn1c(-c2csc(-c3ccccc3)n2)n[nH]c1=S	–	17.8 µM [falling, single point]
O=S(=O)(c1ccc(NC(=S)N/N=C/c2c3ccccc3cc3ccccc23)cc1)N1CCOCC1	10 µM [rising, partial curve, poor fit]	–

# Some of the entries so far, bar-delimited:
SMILES | AC50 [1] | AC50 [2]
Clc1ccc(OCc2nc(-c3ccncc3)no2)c(Br)c1 | 4.61 µM [rising, full curve] | –
Cc1cccn2c(=O)c(/C=C(\C#N)C(=O)NCc3ccco3)c(N3CCOCC3)nc12 | 0.1 µM [falling, full curve, poor fit] | –

# (listing goes on)

SMILES,AC50 [1],AC50 [2]
CN(C)C(=O)c1ccc(NC(=O)c2ccc(-c3ccc(Cl)cc3)o2)cc1,"29.1 µM [falling, single point]",–
O=C(OCn1ncc(Br)c(Br)c1=O)c1c(F)cccc1F,"3.66 µM [falling, full curve]","4.61 µM [rising, full curve, poor fit]"
Cc1ccsc1C(=O)N1CCCC(C(=O)c2cc(F)ccc2F)C1 (centres undefined),"12.6 µM [rising, partial curve, poor fit]",–
FC(F)(F)c1ccc(N2CCN(c3cc(-c4ccccc4)nc4ncnn34)CC2)nc1,"31.6 µM [falling, partial curve, poor fit]",–
CCOc1cc(/C=C(/C#N)c2nc3ccccc3[nH]2)ccc1Oc1ccc([N+](=O)[O-])cn1,"0.651 µM [falling, full curve, poor fit]",–
O=C1C(=C2SCCCS2)CC/C1=C\c1ccc(F)cc1,"2.51 µM [falling, partial curve]",–
O=C(/C=C/c1ccc(Cl)cc1)NCc1cccs1,"23.1 µM [falling, single point]",–
CC1CCN(C(=O)CNC(=O)c2cccc(OC(F)F)c2)CC1,"3.98 µM [falling, full curve, poor fit]",–
Cc1ccc(/C=N/NC(=S)N2CCOCC2)cc1,"1.84 µM [rising, full curve]",–
COc1cccc(Nc2nc(N)nc(CCl)n2)c1,"11.2 µM [falling, partial curve]",–
Cc1ccc(/C=C/c2nnc(-c3ccccc3)o2)cc1,"1.58 µM [falling, full curve]",–
Cc1ccccc1-n1c(SCC(=O)N2CCC(C(=O)O)CC2)nnc1-c1ccncc1,"35.5 µM [rising, single point]",–
CC(=O)Nc1ccc(Nc2cc(C(C)C)nc3c(-c4ccccc4)c(C)nn23)cc1,"35.5 µM [falling, single point]",–
O=C(O)c1ccc(Nc2ncc([N+](=O)[O-])cc2[N+](=O)[O-])cc1,"3.16 µM [falling, partial curve, poor fit]",–
C=CCn1c(SCC(=O)Nc2ccc(C)cc2C)nnc1-c1cccnc1,"29.1 µM [rising, single point]",–
COc1ccccc1N1CCN(C(c2cccs2)C(C)NC(=O)c2cccnc2)CC1 (centres undefined),"2.51 µM [falling, partial curve, poor fit]",–
CC1=NN(c2ccccc2)C(=O)/C1=C\C=C\c1ccccc1,"1.78 µM [falling, full curve]",–
N=c1n(Cc2ccc(Cl)cc2)c2ccccc2n1CC(O)c1ccco1 (centres undefined),"11.2 µM [falling, partial curve, poor fit]",–
Cc1cccc(NC(=O)C2NC(=O)CC2c2ccccc2)c1C (centres undefined),"23.1 µM [falling, partial curve, poor fit]",–
CCOC(=O)c1cn[nH]c1NC(=S)Nc1ccccc1,"4.47 µM [falling, partial curve, poor fit]",–
O=C(NCCCOc1cccc(CN2CCCCC2)c1)c1ccc(Cl)c(Cl)c1,"32.6 µM [falling, single point]",–

SMILES,AC50 [1],AC50 [2]
CC1CCCCN1C(=O)CSc1nnc(Cc2ccccc2)n1C (centres undefined),"10.3 µM [rising, partial curve, poor fit]",–
Cc1cccc(NC(=S)NCCc2ccccc2)n1,"1 µM [rising, partial curve, poor fit]",–
CCOc1ccc2[nH]c(=O)c(CN(CC3COCCO3)C(=O)c3ccco3)cc2c1 (centres undefined),"5.8 µM [falling, partial curve, poor fit]",–
Clc1ccccc1-c1nc2ccccc2c2nncn12,"13 µM [rising, single point]",–
Cc1ccc(S(=O)(=O)N(C)CCCC(=O)n2nc(C)cc2C)cc1,"2.06 µM [falling, single point]",–
O=C(Nc1cccc2ccccc12)C(=O)C1C(=O)Nc2ccccc21 (centres undefined),"8.91 µM [falling, partial curve, poor fit]",–
c1ccc(C2=Nc3ccccc3OC2)cc1,"29.1 µM [falling, single point]",–
CCCCOC(=O)Nc1cc(OC)c(Cl)cc1OC,"12.6 µM [rising, single point]",–
CCO[C@@H]1OC(C(=O)Nc2ccccc2)=C[C@H](c2coc3ccccc3c2=O)[C@H]1CCCO,"25.1 µM [rising, single point]",–
COc1ccccc1C(CCNCc1ccc(N(C)C)cc1)c1ccc(OC(C)C)cc1 (centres undefined),"17.8 µM [falling, single point]",–
Cn1c(SCc2ccccc2Cl)nnc1-c1cnccn1,"29.1 µM [falling, single point]",–
COc1ccc(N(C)S(=O)(=O)c2cccc(C(=O)Nc3ccc(-n4cnnn4)cc3)c2)cc1,"35.5 µM [falling, single point]",–
O=C1CC(Sc2nnc(-c3ccccc3O)o2)C(=O)N1c1ccccc1 (centres undefined),"12.6 µM [falling, single point]",–
COc1cccc(/C=N/NC(=O)C(C)Cn2cnc3ccccc32)c1 (centres undefined),"2.51 µM [falling, full curve, poor fit]",–
O=C(c1ccccc1Br)N1N=C(c2ccccc2)CC1c1ccccc1F (centres undefined),"4.47 µM [falling, partial curve, poor fit]",–
CC(/C=C1\SC(=S)N(NC(=O)c2ccccc2C)C1=O)=C\c1ccccc1,"2.91 µM [falling, partial curve, poor fit]",–
O=C(COC(=O)CNC(=O)c1ccccc1Cl)Nc1cc(C(F)(F)F)ccc1Cl,"25.9 µM [rising, partial curve, poor fit]",–
O=C(Nc1nnc(CCN2CCCCC2)s1)c1ccccc1,"3.55 µM [rising, full curve]",–
COc1ccc(C2c3c(-c4ccccc4)n[nH]c3C(=O)N2c2ccc(C(=O)O)cc2)cc1 (centres undefined),"3.98 µM [falling, partial curve]",–
CC(NC(=S)NCCc1ccccc1)C(c1cccs1)N1CCN(Cc2ccccc2)CC1 (centres undefined),–,"20.6 µM [rising, partial curve, poor fit]"
Cc1ccc(CSc2nnc(SCC(=O)N/N=C/C=C/c3ccco3)s2)cc1,"8.2 µM [falling, partial curve]",–
